This is one part of the list.

The target of the assay is T1, OsSMF1 (Oryza sativa, UniProt Q6ZLB0 1-436).
T1 sequence: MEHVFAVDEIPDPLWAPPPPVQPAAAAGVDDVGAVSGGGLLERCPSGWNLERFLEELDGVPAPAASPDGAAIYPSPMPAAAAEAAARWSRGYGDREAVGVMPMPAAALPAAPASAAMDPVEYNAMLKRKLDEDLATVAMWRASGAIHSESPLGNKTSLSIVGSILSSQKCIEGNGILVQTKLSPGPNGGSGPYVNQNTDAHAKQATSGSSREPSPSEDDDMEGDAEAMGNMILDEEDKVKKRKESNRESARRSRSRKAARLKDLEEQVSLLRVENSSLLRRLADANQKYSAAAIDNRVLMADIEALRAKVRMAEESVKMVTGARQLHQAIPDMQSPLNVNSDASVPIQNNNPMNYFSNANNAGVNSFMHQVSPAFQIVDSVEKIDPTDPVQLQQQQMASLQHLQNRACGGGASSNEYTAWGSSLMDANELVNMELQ
In words: protein-binding microarray (RPBM); PBS, 2% BSA, 51.3 ng/ul salmon testes DNA, 50 uM zinc acetate, 200 nM TF, 25 C, 1 h; high values mean tight binding. The note with it: protein: recombinant; tags: N-terminal polyhistidine and DsRed monomer fusion (pET32a); chain copies: 2; label: CyDye5-dUTP incorporated in the synthesized complementary strand; 3' TTTTT single-stranded linker to array surface; dsDNA, one strand shown. Put shortly:
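A custom Agilent array was converted to double-stranded form by primer extension with Cy5-dUTP and blocked with 2% BSA. Protein at 200 nM in PBS with 2% BSA, salmon testes DNA and 50 µM zinc acetate was applied for 1 h at 25 °C, followed by washing. The proteins were polyhistidine–DsRed N-terminal fusions of transcription factors, expressed in E. coli BL21-CodonPlus and Ni–NTA-purified. The binding signal is per-feature fluorescence intensity (arbitrary units) from an Axon 4000B scanner.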
As to “ATAGAGGGAGCTTCACCTGTTGCTTTGCGCCACGTGTCATCGGAGTCACCTAGTGCAG”, the binding signal is 28400 fluorescence intensity (a.u.).

For the sequence “TTACGATATAGTGTGCCAATTGGCACACCTACATTTTAGTCGGAGTCACCTAGTGCAG”, the binding signal is 45700 fluorescence intensity (a.u.).

As for “AATTGTTACATGTATATATGTGTCACGTTGGATGATGTTTCGGAGTCACCTAGTGCAG”, the binding signal was 8320 fluorescence intensity (a.u.).

Turning to “ACAATTCTTTATCGATGGGTTAAGTTAAACCTGACGTATTCGGAGTCACCTAGTGCAG”, the binding signal was 3660 fluorescence intensity (a.u.).

With “TCCCTGTCCTGCAAGATTCGGCACGCAGAAAACGTTCGATCGGAGTCACCTAGTGCAG”, the binding signal is 35600 fluorescence intensity (a.u.).

“TTCATGCGCCCACATGACGTAGTGAATTAGTGGACTATGTCGGAGTCACCTAGTGCAG”: the binding signal was 4570 fluorescence intensity (a.u.).

For the sequence “GTCATACATTAAAATACGGAGGGAGTATTACACATTGGATCGGAGTCACCTAGTGCAG”, the binding signal is 3940 fluorescence intensity (a.u.).

Turning to “AAAATGCCACATCGGTATGCCGCATCTTCGTTGCAATCTTCGGAGTCACCTAGTGCAG”, the binding signal was 6330 fluorescence intensity (a.u.).

On to “TGAACACATCAGTAAACATATTACTACACGGTGGCTATTACGGAGTCACCTAGTGCAG”, for which the binding signal is 4140 fluorescence intensity (a.u.).

Regarding “ACAGATAGAGGCCATTAGACTGTGTACAAGAGCTGAGTCACGGAGTCACCTAGTGCAG”, the binding signal was 10000 fluorescence intensity (a.u.).

With “ACAGCTCCAACTCCTAAATATAACTCCAGGAGTTGAGTCTCGGAGTCACCTAGTGCAG”, the binding signal is 26200 fluorescence intensity (a.u.).

For “CTGTTTCTAACGATGGCACGTATACAAATTTGTCTGGCTCCGGAGTCACCTAGTGCAG”, the binding signal was 4800 fluorescence intensity (a.u.).

Take “AAATGTTTAGGGGAATGCTACATGACGGTATCTCGTTCAGCGGAGTCACCTAGTGCAG”: the binding signal is 3520 fluorescence intensity (a.u.).

Consider “GTCAAATCACCTGGCCTTGGGCTGGGTCATATGACCATCTCGGAGTCACCTAGTGCAG”, for which the binding signal was 3200 fluorescence intensity (a.u.).

On to “TTGGAGTCGTGTGTTCGATCGCCGCGCTATCCACGTCGCCCGGAGTCACCTAGTGCAG”, for which the binding signal is 4220 fluorescence intensity (a.u.).

On to “TTCTTTCTGCTACGAACAAATGTTCACCACTGTAGCCACTCGGAGTCACCTAGTGCAG”, for which the binding signal was 3230 fluorescence intensity (a.u.).

“GTCATGTCTACGTGTCGCGCTCCAGTTCGCCGCCCACCACCGGAGTCACCTAGTGCAG”: the binding signal was 13600 fluorescence intensity (a.u.).

On to “GCTAGACGGTTGTGGCGTTACGTCATGGCGATCGACTATGCGGAGTCACCTAGTGCAG”, for which the binding signal is 6430 fluorescence intensity (a.u.).

“GAAAATGGGTTTAAACAATTAAAGAGTGTGGTCCATATGACGGAGTCACCTAGTGCAG”: the binding signal was 30200 fluorescence intensity (a.u.).

With “TGTTTCGATTATTCCTTTTGTCTGACGTACACAGTGCATGCGGAGTCACCTAGTGCAG”, the binding signal is 5420 fluorescence intensity (a.u.).

With “AAGCGAGTTGCACACCACGTTGGATTAGATCCTACTAACCCGGAGTCACCTAGTGCAG”, the binding signal was 3730 fluorescence intensity (a.u.).

Take “TGAAAGGGTTGCACGCACGATTTCCACGCACGCGTACGTGCGGAGTCACCTAGTGCAG”: the binding signal was 4420 fluorescence intensity (a.u.).

On to “CTATATGGAGGTAGTAAATCACATGGACCAATCAGATGGTCGGAGTCACCTAGTGCAG”, for which the binding signal was 19100 fluorescence intensity (a.u.).

Consider “CTTGTTGACATTCTTTGGTGAGTTTGTCATGGTCTAAAATCGGAGTCACCTAGTGCAG”, for which the binding signal is 3440 fluorescence intensity (a.u.).

In the case of “TATTTGAAAATCGTAACTCCATCCTCTACGTGTGTATGACCGGAGTCACCTAGTGCAG”, the binding signal was 3140 fluorescence intensity (a.u.).

With “GAAACTCTAAATCTGCCATTACCCCAAGTACATCATTAGTCGGAGTCACCTAGTGCAG”, the binding signal is 3310 fluorescence intensity (a.u.).

Take “AATCAAATCCAGCTGACGCGGTGTCCATCAATTAATAACACGGAGTCACCTAGTGCAG”: the binding signal was 33700 fluorescence intensity (a.u.).

As for “ATTGAGATATAGATAGATAGAAACGATGCTGCGTCATCGCCGGAGTCACCTAGTGCAG”, the binding signal is 11000 fluorescence intensity (a.u.).

Regarding “GTTGACATATGGATCCTGGTGTTATCGACTCAATGTAGAGCGGAGTCACCTAGTGCAG”, the binding signal is 5150 fluorescence intensity (a.u.).

For the sequence “TTTCAGTGGTCCAAAACCGATGTGTCATATGTTGTACCAACGGAGTCACCTAGTGCAG”, the binding signal is 4580 fluorescence intensity (a.u.).

For “TAAACTTGATATTGTAAACGTTTGCATATTTTATGTAAATCGGAGTCACCTAGTGCAG”, the binding signal was 14500 fluorescence intensity (a.u.).

Consider “ACGTATATTCACAATTAAATGTGTTTCTTTCATTGTAACACGGAGTCACCTAGTGCAG”, for which the binding signal is 15700 fluorescence intensity (a.u.).

Take “GAGCTGGGGCGAGGCGTGACGTGGCGCTTTAATGGGCGTGCGGAGTCACCTAGTGCAG”: the binding signal was 10600 fluorescence intensity (a.u.).

On to “GATGGATTTAGGCCCACCTGTCAGTGGTAATTTTCTATGACGGAGTCACCTAGTGCAG”, for which the binding signal was 3150 fluorescence intensity (a.u.).

Regarding “CAACTGGCCATGTATGCACATGCACCCCAGAGACAACCTACGGAGTCACCTAGTGCAG”, the binding signal is 3420 fluorescence intensity (a.u.).

For “GGGACACGTACGAAGCTGACGTGGCGATCGATCTGACGAACGGAGTCACCTAGTGCAG”, the binding signal is 11500 fluorescence intensity (a.u.).

For the sequence “ATCACTTCATTATCACATGACAGACCAACATATAATGATGCGGAGTCACCTAGTGCAG”, the binding signal was 44500 fluorescence intensity (a.u.).

Regarding “CGGGTGGTAGCGGCCTCTCCCCGGCGGCAGCTCGTCCATGCGGAGTCACCTAGTGCAG”, the binding signal was 13400 fluorescence intensity (a.u.).

For the sequence “ACTCTCGTCCTCGAAGGTGGCGCCATTGGTGCCGTAGGAACGGAGTCACCTAGTGCAG”, the binding signal is 4250 fluorescence intensity (a.u.).

With “GAGGAGCGGATGTCCGTCATCCCCTCCGGCAGCATTCGGACGGAGTCACCTAGTGCAG”, the binding signal is 3480 fluorescence intensity (a.u.).

Regarding “CTCTCCTCTTCCTCCTCCTCCGCTTGATCTGGGGTGGGGTCGGAGTCACCTAGTGCAG”, the binding signal was 3440 fluorescence intensity (a.u.).

Consider “ACCGCGATCGCTTCGTCAAATCCGCGCGCGCGTCGTGTCGCGGAGTCACCTAGTGCAG”, for which the binding signal is 4440 fluorescence intensity (a.u.).
